Reference: patent US20100093018A1, “CELLS […] PROTEINS AND ASSAYS USING SUCH CELLS” (ACHILLION PHARMACEUTICALS, INC., priority 2007, published 2010)
These are yes or no findings as the source states them, for the method shown. Binding seen in cells or lysates may run through a third protein. Some results given as binding are weak or reduced against the parent protein; the word gives no strength.

Target: HCV NS3 protein (hepatitis C virus) (UniProt Q9WMX2)
Assay: co-immunoprecipitation of viral proteins from replicon cells

For “HCV NS4A protein (from UniProt Q9WMX2 1658-1711)”, the binding was “binds”.
